The exact form of at least one protein or probe is not confirmed. Negatives hold for the conditions tested. Protein sequences can lack the tags named with them.
Target: T1, DdrD (Deinococcus radiodurans R1 (ATCC 13939)) (UniProt Q9RXI7)
T1 sequence (looked up, limits assumed): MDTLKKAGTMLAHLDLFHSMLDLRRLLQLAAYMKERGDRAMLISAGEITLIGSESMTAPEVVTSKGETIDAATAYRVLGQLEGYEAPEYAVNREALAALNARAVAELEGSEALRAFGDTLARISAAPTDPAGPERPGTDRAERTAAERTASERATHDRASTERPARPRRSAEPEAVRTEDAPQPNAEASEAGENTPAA
Test: EMSA
Settings: 5 mM Mg2+, EMSA: 40 mM Tris-HCl pH 7.8, 5 mM MgCl2, 1.5 mM DTT, 50 mM NaCl, 2.5% glycerol, 3.3 nM DNA, 15 min at 4 C, 6% native PAGE in 0.25X TBE with 10% glycerol, recombinant protein, label: 5' Cy5 on strand 1

Sequence | binding result (only faint shifted band, attributed to DdrD-residual ssDNA) | binding result (major band DdrD-oligo 3, minor band DdrD-residual ssDNA)
CTGTTTAAGAAATTCACCTCGAAAGCAAGCTGATAAACCGATACAATTAAAGGCTCCTTTTGGAGCC / GCTTGCTTTCGAGGTGAATTTCTTAAACAG [oligo 4 (ds with 37-nt 3' tail)] | no binding | 
CTGTTTAAGAAATTCACCTCGAAAGCAAGCTGATAAACCGATACAATTAAAGGCTCCTTTTGGAGCC / GGCTCCAAAAGGAGCCTTTAATTGTATCGG [oligo 3 (ds with 37-nt 5' tail)] |  | binds

From paper PMC8254717, “Characterization of the DdrD protein from the extremely radioresistant bacterium Deinococcus radiodurans”
